Values quoted from earlier work, collected in patent US4752612A, “Method and percutaneously administering physiologically active agents using an alcohol adjuvant and a solvent” (Nitto Electrical Industrial Co., Ltd., priority 1986, dated 1988).

Details: man, Kaplan et al., J. Pharm. Sci. 1973; cited from earlier work

CN1C(=O)CN=C(c2ccccc2)c2cc(Cl)ccc21 [Diazepam, 7-Chloro-1,3-dihydro-1-methyl-5-phenyl-2H-1,4-benzodiazepine-2-one]
blood levels after therapeutic oral doses: approximately 100 ng/ml plasma
